In paper PMC12477100 one finds binding data, which are given here for two substances.

Chains of the proteins cited; added tags and fusions are not shown.
UniProt O94921: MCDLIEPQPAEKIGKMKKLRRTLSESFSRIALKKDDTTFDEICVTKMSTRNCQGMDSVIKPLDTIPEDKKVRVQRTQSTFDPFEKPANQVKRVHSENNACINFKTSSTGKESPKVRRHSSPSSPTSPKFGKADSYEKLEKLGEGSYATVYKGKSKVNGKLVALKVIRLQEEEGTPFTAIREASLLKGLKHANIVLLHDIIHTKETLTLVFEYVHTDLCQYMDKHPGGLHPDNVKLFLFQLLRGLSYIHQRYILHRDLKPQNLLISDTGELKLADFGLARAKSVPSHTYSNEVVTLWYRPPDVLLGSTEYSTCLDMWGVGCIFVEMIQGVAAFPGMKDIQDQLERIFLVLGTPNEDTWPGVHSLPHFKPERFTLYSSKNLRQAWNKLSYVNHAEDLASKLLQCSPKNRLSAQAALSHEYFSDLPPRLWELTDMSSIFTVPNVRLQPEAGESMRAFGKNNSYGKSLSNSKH

This experiment deals with small nuclear ribonucleoprotein polypeptide G (human (endogenous in A549)) (UniProt P62308). The experiment can be described thus: co-IP; Co-IP in A549 cells; immunoprecipitation using a SNRPG antibody, blot for the partner.

Results are given in words; binding and its absence hold for the method and conditions named. Binding seen in cells or lysates may run through a third protein. Some entries that bind do so weakly or less than the wild type.

“Wilms tumor 1 (from UniProt P19544 1-449)”: the binding result is on record as “binds”. The value for “cyclin-dependent kinase 14 (from UniProt O94921 1-469)” was “no binding”.
